Literature values as cited in article PMC5522529, “Mechanisms of Paradoxical Activation of AMPK by the Kinase Inhibitors SU6656 and Sorafenib” (Cell Chemical Biology, 2017).

Tested on: LKB1 versus AMPK
Set-up: method as in MRC Kinase Inhibitor Database
Conditions: ref MRC Kinase Inhibitor Database; cited from earlier work

## CN[C@@H]1C[C@H]2O[C@@](C)([C@@H]1OC)n1c3ccccc3c3c4c(c5c6ccccc6n2c5c31)C(=O)NC4 [staurosporine]
  potency of LKB1 inhibition relative to AMPK inhibition: inhibit LKB1 with similar potency to AMPK
